{"source": "PubChem BioAssay AID1224830 (NIAID, 2016)", "test": "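Regulators of TLR4 signalling towards TNF-alpha in macrophage-like cells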 (primary screen)", "cell system": "human THP-1 monocytic leukaemia cells, TNF dual-luciferase reporter clone, PMA-differentiated to macrophage-like cells", "knock-down reagent": "siRNA pool against human genes, 50 nM", "timing": "LPS for 4 h, given about 3 days after siRNA transfection", "challenge": "bacterial LPS (TLR4 ligand), 10 ng/ml", "detection": "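TNF firefly reporter luminescence divided by renilla, normalised to the plate median, then turned into a robust z-score for each replicate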", "reading the numbers": "TNF reporter robust z-score: higher = stronger TNF reporter response to LPS", "rule for the call": "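a well is active when its z-score exceeds 2.8 or falls below -1.5; control wells carry no call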", "note": "Here is one part, drawn at random, of about 18,000 reagents. Over the whole deposit, about 2,900 (16%) were called active. 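Calls are made per well; low scores hint the gene aids the LPS response, high scores that it dampens it.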 Repeated entries: four replicate wells of each siRNA pool. Reagent sequences are not shown."}
{"target": "ANK2", "TNF reporter robust z-score": -1.12, "call": "inactive"}
{"target": "ANK2", "TNF reporter robust z-score": -1.21, "call": "inactive"}
{"target": "ANK2", "TNF reporter robust z-score": -1.26, "call": "inactive"}
{"target": "ANK2", "TNF reporter robust z-score": -1.03, "call": "inactive"}
{"target": "VANGL2", "TNF reporter robust z-score": -0.29, "call": "inactive"}
{"target": "VANGL2", "TNF reporter robust z-score": 0.13, "call": "inactive"}
{"target": "VANGL2", "TNF reporter robust z-score": 0, "call": "inactive"}
{"target": "VANGL2", "TNF reporter robust z-score": 0.34, "call": "inactive"}
{"target": "TSPO2", "TNF reporter robust z-score": -0.29, "call": "inactive"}
{"target": "TSPO2", "TNF reporter robust z-score": 0.67, "call": "inactive"}
{"target": "TSPO2", "TNF reporter robust z-score": 1.19, "call": "inactive"}
{"target": "TSPO2", "TNF reporter robust z-score": 0.37, "call": "inactive"}
{"target": "DMC1", "TNF reporter robust z-score": 1.8, "call": "inactive"}
{"target": "DMC1", "TNF reporter robust z-score": 0, "call": "inactive"}
{"target": "DMC1", "TNF reporter robust z-score": -0.39, "call": "inactive"}
{"target": "DMC1", "TNF reporter robust z-score": 0.21, "call": "inactive"}
{"target": "PRDX4", "TNF reporter robust z-score": -1.19, "call": "inactive"}
{"target": "PRDX4", "TNF reporter robust z-score": -0.54, "call": "inactive"}
{"target": "PRDX4", "TNF reporter robust z-score": 0.87, "call": "inactive"}
{"target": "PRDX4", "TNF reporter robust z-score": 0.07, "call": "inactive"}
{"target": "FTH1", "TNF reporter robust z-score": 0.48, "call": "inactive"}
{"target": "FTH1", "TNF reporter robust z-score": 0.4, "call": "inactive"}
{"target": "FTH1", "TNF reporter robust z-score": 0, "call": "inactive"}
{"target": "FTH1", "TNF reporter robust z-score": 0.9, "call": "inactive"}
{"target": "ZNF658B", "TNF reporter robust z-score": -1.1, "call": "inactive"}
{"target": "ZNF658B", "TNF reporter robust z-score": 0.37, "call": "inactive"}
{"target": "ZNF658B", "TNF reporter robust z-score": -0.23, "call": "inactive"}
{"target": "ZNF658B", "TNF reporter robust z-score": -0.92, "call": "inactive"}
{"target": "PIGM", "TNF reporter robust z-score": -0.1, "call": "inactive"}
{"target": "PIGM", "TNF reporter robust z-score": -0.14, "call": "inactive"}
{"target": "PIGM", "TNF reporter robust z-score": -1.41, "call": "inactive"}
{"target": "PIGM", "TNF reporter robust z-score": -1.47, "call": "inactive"}

Part of the list above, reformatted:
target	TNF reporter robust z-score	call
DMC1	-0.39	inactive
DMC1	0.21	inactive
PRDX4	-1.19	inactive
PRDX4	-0.54	inactive
PRDX4	0.87	inactive
PRDX4	0.07	inactive
FTH1	0.48	inactive
FTH1	0.4	inactive
FTH1	0	inactive
FTH1	0.9	inactive

Additional reagents:
{"target": "PLEKHA4", "TNF reporter robust z-score": 2.01, "call": "inactive"}
{"target": "PLEKHA4", "TNF reporter robust z-score": 5.03, "call": "active"}
{"target": "PLEKHA4", "TNF reporter robust z-score": 4.84, "call": "active"}
{"target": "PLEKHA4", "TNF reporter robust z-score": 1.92, "call": "inactive"}
{"target": "COIL", "TNF reporter robust z-score": -1.26, "call": "inactive"}
{"target": "COIL", "TNF reporter robust z-score": -0.33, "call": "inactive"}
{"target": "COIL", "TNF reporter robust z-score": -0.62, "call": "inactive"}
{"target": "COIL", "TNF reporter robust z-score": -0.57, "call": "inactive"}
{"target": "TRAPPC14", "TNF reporter robust z-score": 0.02, "call": "inactive"}
{"target": "TRAPPC14", "TNF reporter robust z-score": 0.37, "call": "inactive"}
{"target": "TRAPPC14", "TNF reporter robust z-score": 0.12, "call": "inactive"}
{"target": "TRAPPC14", "TNF reporter robust z-score": 0.28, "call": "inactive"}
{"target": "EYA3", "TNF reporter robust z-score": 0.15, "call": "inactive"}
{"target": "EYA3", "TNF reporter robust z-score": 0.43, "call": "inactive"}
{"target": "EYA3", "TNF reporter robust z-score": -0.41, "call": "inactive"}
{"target": "EYA3", "TNF reporter robust z-score": 0.53, "call": "inactive"}
{"target": "DESI1", "TNF reporter robust z-score": 2.23, "call": "inactive"}
{"target": "DESI1", "TNF reporter robust z-score": 2.17, "call": "inactive"}
{"target": "DESI1", "TNF reporter robust z-score": 4.11, "call": "active"}
{"target": "DESI1", "TNF reporter robust z-score": 2.43, "call": "inactive"}
{"target": "SNCA", "TNF reporter robust z-score": 0.81, "call": "inactive"}
{"target": "SNCA", "TNF reporter robust z-score": 1.55, "call": "inactive"}
{"target": "SNCA", "TNF reporter robust z-score": -0.11, "call": "inactive"}
{"target": "SNCA", "TNF reporter robust z-score": 0.4, "call": "inactive"}
{"target": "PRUNE2", "TNF reporter robust z-score": 1.9, "call": "inactive"}
{"target": "PRUNE2", "TNF reporter robust z-score": 2.29, "call": "inactive"}
{"target": "PRUNE2", "TNF reporter robust z-score": 0.16, "call": "inactive"}
{"target": "PRUNE2", "TNF reporter robust z-score": 0.67, "call": "inactive"}
